According to the supplement of paper PMC10689618:
Where a name gives a salt, the structure may show the parent alone. The list shows a part of the results. Single values are uncertain, as repeats are few or missing.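 Labelled rat cortical synaptosomes were engulfed by primary human fetal astrocytes. Engulfment equaled a red/green ratio, corrected for calcein live-cell signal and normalized to the plate median. Compounds were toxic when calcein dropped over 30%, and reduced phagocytosis when below 70% of the median above 5 µM.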

Experiments:
Human fetal astrocytes [1] = assay: loss of total cells relative to no-compound high-control median (toxicity); higher = more toxic (fewer cells); settings: 24 h
Human fetal astrocytes [2] = assay: synaptosome phagocytosis (pHrodo/calcein intensity ratio) relative to plate median of data wells; higher = more phagocytosis; settings: 24 h

SMILES	loss of total cells (Human fetal astrocytes [1]; 1.39 µM) [%]	loss of total cells (Human fetal astrocytes [1]; 2.78 µM) [%]	loss of total cells (Human fetal astrocytes [1]; 5.56 µM) [%]	loss of total cells (Human fetal astrocytes [1]; 11.11 µM) [%]	loss of total cells (Human fetal astrocytes [1]; 22.22 µM) [%]	synaptosome phagocytosis (Human fetal astrocytes [2]; 1.39 µM) [%]	synaptosome phagocytosis (Human fetal astrocytes [2]; 2.78 µM) [%]	synaptosome phagocytosis (Human fetal astrocytes [2]; 5.56 µM) [%]	synaptosome phagocytosis (Human fetal astrocytes [2]; 11.11 µM) [%]	synaptosome phagocytosis (Human fetal astrocytes [2]; 22.22 µM) [%]
COc1ccc2c(c1)c(CC(=O)O)c(C)n2Cc1ccc(F)cc1 [1-(4-Fluorobenzyl)-5-methoxy-2-methylindole-3-acetic acid]	-11.3	-19.7	-12.3	-13	5.6	110	76.5	113	124	116
CN1CCc2c(cc(O)c(O)c2Cl)C(c2cccc(Cl)c2)C1 (stereo not given)	7.8	-0.3	-24.7	-14.2	-3.3	71.7	91.6	90.2	80.2	101
N[C@@H](Cc1ccc(F)cc1)C(=O)O [p-Fluoro-L-phenylalanine]	-1.3	0	-16.5	-8.5	6.4	118	126	102	114	96.5
CCN(c1nc(N)c(C(=O)NC(=N)N)nc1Cl)C(C)C [5-(N-Ethyl-N-isopropyl)amiloride]	0.7	-17.1	-11.5	-12.1	-1.1	105	93.5	115	87.2	75.2
O=C(O)c1cc(=O)c2c(Cl)cc(Cl)cc2[nH]1 [5,7-Dichlorokynurenic acid]	-19.7	-3.4	-9.9	-11.2	-7.2	88.5	92.6	90.7	107	94.5
O=C(O)[C@H]1C[C@H](C(=O)O)N1 (relative stereo) [trans-Azetidine-2,4-dicarboxylic acid]	-15	-15.3	-12.4	-9.4	-7.9	82	82.5	94.6	97.8	101
COc1ccc(-c2ccc(=N)n(CCCC(=O)O)n2)cc1	-3.4	-26.6	-3.9	-5.7	-10.7	115	116	119	106	111
O=c1ccc2c(OCCCCc3ccccc3)c3ccoc3cc2o1 [Psora-4]	-12.8	-22.3	-23.5	-22	4.9	88.5	114	69.8	99.9	95.6
OCC1OC(n2cnc3c(NCCc4ccccc4)ncnc32)C(O)C1O (stereo not given) [N6-2-Phenylethyladenosine]	-15.8	-30.2	-30.3	-24.9	-24.7	118	97.2	112	132	139
CCC(=O)N1CCN(C(=O)c2ccccc2)CC1	-27.2	-28.2	-30.5	-6.7	0	124	96.8	106	83.3	90.5
CN(C)CCCN1c2ccccc2CCc2ccc(Cl)cc21 [Clomipramine hydrochloride]	-11.7	-22.3	-13.4	-11.2	15.4	102	92.7	81.9	92.9	69
N#C/C(=C\c1ccc(O)c(O)c1)C(=O)NCCCNC(=O)/C(C#N)=C/c1ccc(O)c(O)c1 [Tyrphostin AG 537]	-17.1	-29	-18	-20.3	-28.8	102	97.5	105	119	98.8
CN(C)c1ccc(O)c2c1C[C@H]1C[C@H]3[C@H](N(C)C)C(O)=C(C(N)=O)C(=O)[C@@]3(O)C(O)=C1C2=O [Minocycline hydrochloride]	6.2	-4.1	-8.9	9.5	-7.5	98.2	114	130	111	88.8
Oc1cc2c(cc1O)C(c1ccccc1)CNCC2 (racemic)	-15.5	-14.5	-18.1	6.7	6.4	89.9	126	123	123	107
NC(=O)c1cc[n+](CC2=C(C(=O)O)N3C(=O)[C@@H](NC(=O)C(c4ccccc4)S(=O)(=O)[O-])[C@H]3SC2)cc1 (stereo not given in full) [Cefsulodin sodium salt hydrate]	-19.4	-15.6	-0.5	-11.2	16.2	109	108	118	84.8	93.6
OC[C@H]1O[C@@H](c2nc3cc(Cl)c(Cl)cc3[nH]2)[C@H](O)[C@@H]1O [D-ribofuranosylbenzimidazole]	2.1	-14.5	-9.9	-13	-10.4	88.8	118	71.9	84.2	47.4
COc1cccc(C(=O)NCCN2CCN(c3ccc(Cl)cc3)CC2)c1	-21.3	-17.1	-18	-5.8	11.7	81.5	95.9	95.5	97.7	127
CCCn1c(=O)c2[nH]c(C3CCCC3)nc2n(CCC)c1=O [8-Cyclopentyl-1,3-dipropylxanthine]	13	-14.5	4.1	8.5	-5.6	109	74.3	118	131	92.4
Nc1nccc2c1ncn2[C@@H]1O[C@H](CO)[C@@H](O)[C@H]1O [3-deazaadenosine]	12.1	-1.7	-5.8	-6.7	4	108	104	116	104	122

SMILES	loss of total cells (Human fetal astrocytes [1]; 1.39 µM) [%]	loss of total cells (Human fetal astrocytes [1]; 2.78 µM) [%]	loss of total cells (Human fetal astrocytes [1]; 5.56 µM) [%]	loss of total cells (Human fetal astrocytes [1]; 11.11 µM) [%]	loss of total cells (Human fetal astrocytes [1]; 22.22 µM) [%]	synaptosome phagocytosis (Human fetal astrocytes [2]; 1.39 µM) [%]	synaptosome phagocytosis (Human fetal astrocytes [2]; 2.78 µM) [%]	synaptosome phagocytosis (Human fetal astrocytes [2]; 5.56 µM) [%]	synaptosome phagocytosis (Human fetal astrocytes [2]; 11.11 µM) [%]	synaptosome phagocytosis (Human fetal astrocytes [2]; 22.22 µM) [%]
CC[N+](CC)(CC)CC(=O)Nc1c(C)cccc1C [Lidocaine N-ethyl bromide quaternary salt]	-10	-0.5	-7	-14.3	10.3	91.4	109	86.8	94.8	108
CC1=C(/C=C/C(C)=C/C=C/C(C)=C/C(=O)Nc2ccc(O)cc2)C(C)(C)CCC1 [Retinoic acid p-hydroxyanilide]	-9.6	-5.1	-2.5	1.3	0.8	117	104	114	96.8	104
COc1ccc(CC(C)NCC(O)c2ccc(O)c(NC=O)c2)cc1 (stereo not given) [Formoterol]	3.8	5.1	23	-10.3	-2.4	112	102	92.9	135	122
CN1CCN(c2nc3cc(C(F)(F)F)ccc3n3cccc23)CC1	-6.3	-22.2	-8.2	-7.6	13.6	108	94.8	97.9	65.9	70.4
COc1ccc2[nH]cc(CCNC(C)=O)c2c1 [Melatonin]	-18.5	-7.7	-1.4	-17.1	23.4	83.6	93.8	86.3	114	78.8
COc1cc2nc(N3CCN(C(=O)OCc4ccccc4)[C@H](C(=O)NC(C)(C)C)C3)nc(N)c2cc1OC	-51.2	-4.5	-20.8	-6.5	-37.9	107	80.5	85.4	110	111
Nc1nc(Cl)nc2c1ncn2[C@@H]1O[C@H](COP(=O)(O)OP(=O)(O)OP(=O)(O)O)[C@H](O)C1O (stereo not given in full) [2-Chloroadenosine triphosphate tetrasodium]	-12.1	-14.5	8.2	-31.8	11.2	93	91.6	111	105	113
CC(C)=CCC/C(C)=C/CC/C(C)=C/CSc1ccccc1C(=O)O [Farnesylthiosalicylic acid]	5.4	-12	12.3	-0.4	13.6	115	110	105	111	106
CC(C)C(=O)c1c(C(C)C)nn2ccccc12 [Ibudilast]	4.6	-5.1	7.4	-2.2	-6.4	91.6	87.3	112	89.8	92.7
O=[N+]([O-])c1ccc(CSc2ncnc3c2ncn3[C@@H]2O[C@H](CO)[C@@H](O)[C@H]2O)cc1 [S-(4-Nitrobenzyl)-6-thioinosine]	-10.9	-6.8	6.1	14.3	-6.5	115	92.4	110	95.1	105
C[N+](C)(C)CC=O [Betaine aldehyde chloride]	-7.3	-11.7	-15.2	3.1	-13.9	114	106	106	119	94.4
N=C(N)c1ccc(N)cc1 [4-Aminobenzamidine dihydrochloride]	-34.5	-21.1	-25.3	-13	3.4	87.3	91.1	62.7	124	81.9
CC1(C)C(=O)N(CCN2CCC(C(=O)c3ccc(F)cc3)CC2)c2ccccc21 [LY-310,762 hydrochloride]	-6.2	22.2	9.9	22.9	15.9	63.4	97.5	71	67	62
Cn1c(=O)c2nc[nH]c2n(C)c1=O [Theophylline]	-7.8	-3.3	-3.9	5	-18.1	99.1	104	110	104	92.4
Cc1cccc(/C=C/c2ccccc2)n1	-33.2	-19.5	-7.9	-8.8	-15.6	108	126	127	80.9	113
O=C(Nc1ccccc1)c1cc([N+](=O)[O-])ccc1Cl	-4.3	7.7	2.3	10.5	20.6	75.1	87	90.2	64.9	91.7
Cc1cc(C)c(/C=C2\C(=O)Nc3ccccc32)[nH]1	-18.3	-30.2	-14	-0.4	-43.6	70.6	78.6	68.5	79.7	58.6
N=c1ccn2c(n1)O[C@H]1[C@H](O)[C@@H](CO)O[C@H]12 [Ancitabine hydrochloride]	-11	-13.8	-25.3	-24.7	-3.4	94.8	115	105	118	94.1
CC(C)CN(C)c1nc(N)c(C(=O)N=C(N)N)nc1Cl [5-(N-Methyl-N-isobutyl)amiloride]	-23.1	-12.9	-17.1	-10.3	16.2	96.5	71.2	86.3	72.7	75.1

Sorted by SMILES length (low to high): some entries from above
SMILES	loss of total cells (Human fetal astrocytes [1]; 1.39 µM) [%]	loss of total cells (Human fetal astrocytes [1]; 2.78 µM) [%]	loss of total cells (Human fetal astrocytes [1]; 5.56 µM) [%]	loss of total cells (Human fetal astrocytes [1]; 11.11 µM) [%]	loss of total cells (Human fetal astrocytes [1]; 22.22 µM) [%]	synaptosome phagocytosis (Human fetal astrocytes [2]; 1.39 µM) [%]	synaptosome phagocytosis (Human fetal astrocytes [2]; 2.78 µM) [%]	synaptosome phagocytosis (Human fetal astrocytes [2]; 5.56 µM) [%]	synaptosome phagocytosis (Human fetal astrocytes [2]; 11.11 µM) [%]	synaptosome phagocytosis (Human fetal astrocytes [2]; 22.22 µM) [%]
Cn1c(=O)c2nc[nH]c2n(C)c1=O [Theophylline]	-7.8	-3.3	-3.9	5	-18.1	99.1	104	110	104	92.4
O=C(Nc1ccccc1)c1cc([N+](=O)[O-])ccc1Cl	-4.3	7.7	2.3	10.5	20.6	75.1	87	90.2	64.9	91.7
Nc1nc(Cl)nc2c1ncn2[C@@H]1O[C@H](COP(=O)(O)OP(=O)(O)OP(=O)(O)O)[C@H](O)C1O (stereo not given in full) [2-Chloroadenosine triphosphate tetrasodium]	-12.1	-14.5	8.2	-31.8	11.2	93	91.6	111	105	113
